Measured data: PubChem BioAssay AID504793 (Drosophila RNAi Screening Center, 2011)

Aim: 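Knock-downs allowing continued mitosis even though DNA is damaged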 (primary screen)
Cell system: Drosophila S2R+ cells
Reagents: long dsRNA against Drosophila genes, about 0.25 µg dsRNA per well
Time to read-out: 4 days of dsRNA, then 4 hours of drug before read-out
Challenge: doxorubicin 0.5 µM for 4 hours to cause double-strand breaks, in cells also given a low, harmless dose of dsRNA against nbs to sensitise the assay
Read-out: 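Per-well count of mitotic cells stained for phospho-histone H3 after doxorubicin exposure, used as mitotic index; counts are raw and not normalised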
Scale: mitotic cells: higher = more cells in mitosis, weaker G2 arrest
Hit rule: 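a call needs confirmation in secondary tests, with other dsRNAs and a check of mitotic timing without damage, not just a high primary count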
Calls: active = confirmed in follow-up tests; inactive = not confirmed
The deposit covers about 23,000 reagents; this is a random part of those with a known target gene and a result. Of all reagents, 62 (0.27%) got an active call. 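Calls come from follow-up tests whose scores are not deposited, so confirmed genes may have low counts here; counts are not normalised per plate.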 Raw values are not corrected between plates. No sequences are given here.

| target | amplicon | mitotic cells, replicate 1 | call |
| --- | --- | --- | --- |
| bgm (bubblegum) | DRSC03495 | 5 | inactive |
| bgm (bubblegum) | DRSC27103 | 4 | inactive |
| Xpac (Xeroderma pigmentosum group A-like) | DRSC18730 | 13 | inactive |
| Xpac (Xeroderma pigmentosum group A-like) | DRSC25963 | 4 | inactive |
| slim (scruin like at the midline) | DRSC06921 | 8 | inactive |
| S2P (site-2 protease) | DRSC07311 | 7 | inactive |
| S2P (site-2 protease) | DRSC27864 | 8 | inactive |
| srw (shrew) | DRSC08201 | 8 | inactive |
| Tip60 (Tat interactive protein 60kDa) | DRSC18661 | 8 | inactive |
| Rtnl2 | DRSC12609 | 7 | inactive |
| Rtnl2 | DRSC21655 | 8 | inactive |
| Rtnl2 | DRSC26022 | 6 | inactive |
| Spt-I (Serine palmitoyltransferase subunit I) | DRSC06860 | 3 | inactive |
| Spt-I (Serine palmitoyltransferase subunit I) | DRSC26069 | 9 | inactive |
| fray (frayed) | DRSC16950 | 7 | inactive |
| CG31954 | DRSC00580 | 6 | inactive |
| CG31954 | DRSC28191 | 7 | inactive |
| Marf1 (Meiosis regulator and mRNA stability factor 1) | DRSC03747 | 4 | inactive |
| Marf1 (Meiosis regulator and mRNA stability factor 1) | DRSC03774 | 5 | inactive |
| CG6830 | DRSC16124 | 3 | inactive |
| CG6830 | DRSC27278 | 6 | inactive |
| CG6362 | DRSC07413 | 8 | inactive |
| CG6362 | DRSC26135 | 8 | inactive |
| Spt6 | DRSC18836 | 5 | inactive |
| Pex11ab (Peroxin 11a/b) | DRSC07145 | 5 | inactive |
| alpha-Est6 (alpha-Esterase-6) | DRSC12618 | 14 | inactive |
| comr (cookie monster) | DRSC04138 | 5 | inactive |
| Nup35 (Nucleoporin 35kDa) | DRSC19999 | 1 | inactive |
| Dop1R2 (Dopamine 1-like receptor 2) | DRSC13958 | 9 | inactive |
| Dop1R2 (Dopamine 1-like receptor 2) | DRSC15379 | 18 | inactive |
| Dop1R2 (Dopamine 1-like receptor 2) | DRSC28272 | 10 | inactive |
| CG14013 | DRSC02344 | 1 | inactive |
| CG18302 | DRSC02663 | 8 | inactive |
| CG18302 | DRSC29318 | 7 | inactive |
| CG2698 | DRSC15447 | 2 | inactive |
| ND-20L (NADH dehydrogenase (ubiquinone) 20 kDa subunit-like) | DRSC15414 | 9 | inactive |
| Leash | DRSC15617 | 2 | inactive |
| Leash | DRSC28712 | 7 | inactive |
| CG1236 | DRSC12203 | 8 | inactive |
| CG33309 | DRSC01421 | 10 | inactive |
| EMRE (Essential MCU regulator) | DRSC06686 | 2 | inactive |
| CG44837 | DRSC10133 | – | inactive |
| CG44837 | DRSC10558 | 4 | inactive |
| CG44837 | DRSC25062 | 8 | inactive |
| Esyt2 (Extended synaptotagmin-like protein 2) | DRSC16082 | 4 | inactive |
| SerRS (Seryl-tRNA synthetase) | DRSC00496 | 6 | inactive |
| dsf (dissatisfaction) | DRSC03524 | 12 | inactive |
| dsf (dissatisfaction) | DRSC23510 | 11 | inactive |
| CG8051 | DRSC20077 | 8 | inactive |
| CG8051 | DRSC26855 | 11 | inactive |
| CG12831 | DRSC06179 | 6 | inactive |
| Cp36 (Chorion protein 36) | DRSC18452 | 6 | inactive |
| Cp36 (Chorion protein 36) | DRSC27244 | 3 | inactive |
| CG33111 | DRSC14208 | 4 | inactive |
| CG33111 | DRSC14444 | 5 | inactive |
| glo (glorund) | DRSC16145 | 4 | inactive |
| glo (glorund) | DRSC27807 | 5 | inactive |
| CG31347 | DRSC21582 | 6 | inactive |
| CG11030 | DRSC02120 | 3 | inactive |
| CG11030 | DRSC23703 | 4 | inactive |
| MED25 (Mediator complex subunit 25) | DRSC22981 | 15 | inactive |
| MED25 (Mediator complex subunit 25) | DRSC25776 | 8 | inactive |
| Sirt1 (Sirtuin 1) | DRSC03435 | 3 | inactive |
| Tsp42A (Tetraspanin 42A) | DRSC04862 | 4 | inactive |
| CG6565 | DRSC02970 | 4 | inactive |
| CG5861 | DRSC02907 | 3 | inactive |
| Dhc93AB (Dynein heavy chain at 93AB) | DRSC16644 | 15 | inactive |
| Dhc93AB (Dynein heavy chain at 93AB) | DRSC28116 | 5 | inactive |
| CG33080 | DRSC18080 | 7 | inactive |
| CG33080 | DRSC18081 | 14 | inactive |
| CG33080 | DRSC18285 | 8 | inactive |
| CG33080 | DRSC25974 | 3 | inactive |
| CG3788 | DRSC04418 | 6 | inactive |
| CG3788 | DRSC24502 | 7 | inactive |
| Acsf3 (Acyl-CoA synthetase family member 3) | DRSC18146 | 11 | inactive |
| CG13124 | DRSC02220 | 6 | inactive |
| CG13124 | DRSC27328 | 6 | inactive |
| vsg (visgun) | DRSC10219 | 5 | inactive |
| vsg (visgun) | DRSC25227 | 4 | inactive |
| CG1492 | DRSC19605 | 6 | inactive |
| RnrS (Ribonucleoside diphosphate reductase small subunit) | DRSC07533 | 7 | inactive |
| RnrS (Ribonucleoside diphosphate reductase small subunit) | DRSC23541 | 5 | inactive |
| CG7639 | DRSC07026 | 1 | inactive |
| CG32249 | DRSC08101 | 5 | inactive |
| CG32249 | DRSC08177 | 2 | inactive |
| CG32249 | DRSC22444 | 12 | inactive |
| CG15014 | DRSC08468 | 1 | inactive |
| CG15014 | DRSC27374 | 5 | inactive |
| CG6179 | DRSC19973 | 16 | inactive |
| CG5895 | DRSC10554 | 6 | inactive |
| porin | DRSC03594 | 6 | inactive |
| porin | DRSC27826 | 9 | inactive |
| mdlc (midlife crisis) | DRSC15690 | 11 | inactive |
| mdlc (midlife crisis) | DRSC28632 | 3 | inactive |
| CG31952 | DRSC00428 | 2 | inactive |
| CG31952 | DRSC21997 | 4 | inactive |
| CG31952 | DRSC26442 | 16 | inactive |
| Edg91 (Ecdysone-dependent gene 91) | DRSC16657 | 11 | inactive |
| Septin4 (Septin 4) | DRSC20205 | 3 | inactive |
| Septin4 (Septin 4) | DRSC25409 | 8 | inactive |
| Spf45 | DRSC03826 | 7 | inactive |
| Epp (Ecdysteroid phosphate phosphatase) | DRSC14607 | 8 | inactive |
| Epp (Ecdysteroid phosphate phosphatase) | DRSC29249 | 6 | inactive |
| CG30203 | DRSC06690 | 7 | inactive |
| CG15196 | DRSC19643 | 15 | inactive |
| CG15196 | DRSC24591 | 6 | inactive |
| Sqor (Sulfide quinone oxidoreductase) | DRSC08453 | 8 | inactive |
| Sqor (Sulfide quinone oxidoreductase) | DRSC27056 | 6 | inactive |
| alpha-Est3 (alpha-Esterase-3) | DRSC12615 | 4 | inactive |
| lqf (liquid facets) | DRSC11363 | 7 | inactive |
| lqf (liquid facets) | DRSC27882 | 5 | inactive |
